# Percent effect of library compounds

By UniProt entry, the sequences of proteins in these tests, tags left out. Residues count along the entry.
UniProt P9WPC5, whole entry: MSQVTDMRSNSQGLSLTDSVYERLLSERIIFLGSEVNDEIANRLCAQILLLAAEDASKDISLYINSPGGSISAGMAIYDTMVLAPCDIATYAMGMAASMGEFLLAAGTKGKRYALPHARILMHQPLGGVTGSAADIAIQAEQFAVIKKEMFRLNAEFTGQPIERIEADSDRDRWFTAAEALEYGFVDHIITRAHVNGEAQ
UniProt P9WPC3, whole entry partner: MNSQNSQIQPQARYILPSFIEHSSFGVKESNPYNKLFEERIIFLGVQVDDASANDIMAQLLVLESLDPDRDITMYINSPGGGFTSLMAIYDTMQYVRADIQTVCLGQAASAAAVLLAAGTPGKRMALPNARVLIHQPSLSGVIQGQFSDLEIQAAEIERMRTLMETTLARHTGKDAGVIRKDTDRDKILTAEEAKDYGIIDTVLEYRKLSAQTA
UniProt Q4DA54, 1-478: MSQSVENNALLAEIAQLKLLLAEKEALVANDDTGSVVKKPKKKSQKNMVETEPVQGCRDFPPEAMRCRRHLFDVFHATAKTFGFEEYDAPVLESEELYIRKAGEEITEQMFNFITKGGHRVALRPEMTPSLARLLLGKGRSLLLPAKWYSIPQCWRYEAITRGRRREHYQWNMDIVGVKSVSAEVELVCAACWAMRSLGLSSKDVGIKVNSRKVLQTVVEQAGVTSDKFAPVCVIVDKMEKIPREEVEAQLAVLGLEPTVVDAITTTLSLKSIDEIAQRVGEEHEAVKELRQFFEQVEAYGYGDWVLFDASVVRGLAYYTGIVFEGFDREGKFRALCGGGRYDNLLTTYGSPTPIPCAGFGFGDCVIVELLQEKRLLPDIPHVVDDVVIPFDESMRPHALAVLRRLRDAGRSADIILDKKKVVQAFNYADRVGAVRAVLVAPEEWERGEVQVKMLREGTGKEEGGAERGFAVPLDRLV
UniProt I6X8D2, whole entry: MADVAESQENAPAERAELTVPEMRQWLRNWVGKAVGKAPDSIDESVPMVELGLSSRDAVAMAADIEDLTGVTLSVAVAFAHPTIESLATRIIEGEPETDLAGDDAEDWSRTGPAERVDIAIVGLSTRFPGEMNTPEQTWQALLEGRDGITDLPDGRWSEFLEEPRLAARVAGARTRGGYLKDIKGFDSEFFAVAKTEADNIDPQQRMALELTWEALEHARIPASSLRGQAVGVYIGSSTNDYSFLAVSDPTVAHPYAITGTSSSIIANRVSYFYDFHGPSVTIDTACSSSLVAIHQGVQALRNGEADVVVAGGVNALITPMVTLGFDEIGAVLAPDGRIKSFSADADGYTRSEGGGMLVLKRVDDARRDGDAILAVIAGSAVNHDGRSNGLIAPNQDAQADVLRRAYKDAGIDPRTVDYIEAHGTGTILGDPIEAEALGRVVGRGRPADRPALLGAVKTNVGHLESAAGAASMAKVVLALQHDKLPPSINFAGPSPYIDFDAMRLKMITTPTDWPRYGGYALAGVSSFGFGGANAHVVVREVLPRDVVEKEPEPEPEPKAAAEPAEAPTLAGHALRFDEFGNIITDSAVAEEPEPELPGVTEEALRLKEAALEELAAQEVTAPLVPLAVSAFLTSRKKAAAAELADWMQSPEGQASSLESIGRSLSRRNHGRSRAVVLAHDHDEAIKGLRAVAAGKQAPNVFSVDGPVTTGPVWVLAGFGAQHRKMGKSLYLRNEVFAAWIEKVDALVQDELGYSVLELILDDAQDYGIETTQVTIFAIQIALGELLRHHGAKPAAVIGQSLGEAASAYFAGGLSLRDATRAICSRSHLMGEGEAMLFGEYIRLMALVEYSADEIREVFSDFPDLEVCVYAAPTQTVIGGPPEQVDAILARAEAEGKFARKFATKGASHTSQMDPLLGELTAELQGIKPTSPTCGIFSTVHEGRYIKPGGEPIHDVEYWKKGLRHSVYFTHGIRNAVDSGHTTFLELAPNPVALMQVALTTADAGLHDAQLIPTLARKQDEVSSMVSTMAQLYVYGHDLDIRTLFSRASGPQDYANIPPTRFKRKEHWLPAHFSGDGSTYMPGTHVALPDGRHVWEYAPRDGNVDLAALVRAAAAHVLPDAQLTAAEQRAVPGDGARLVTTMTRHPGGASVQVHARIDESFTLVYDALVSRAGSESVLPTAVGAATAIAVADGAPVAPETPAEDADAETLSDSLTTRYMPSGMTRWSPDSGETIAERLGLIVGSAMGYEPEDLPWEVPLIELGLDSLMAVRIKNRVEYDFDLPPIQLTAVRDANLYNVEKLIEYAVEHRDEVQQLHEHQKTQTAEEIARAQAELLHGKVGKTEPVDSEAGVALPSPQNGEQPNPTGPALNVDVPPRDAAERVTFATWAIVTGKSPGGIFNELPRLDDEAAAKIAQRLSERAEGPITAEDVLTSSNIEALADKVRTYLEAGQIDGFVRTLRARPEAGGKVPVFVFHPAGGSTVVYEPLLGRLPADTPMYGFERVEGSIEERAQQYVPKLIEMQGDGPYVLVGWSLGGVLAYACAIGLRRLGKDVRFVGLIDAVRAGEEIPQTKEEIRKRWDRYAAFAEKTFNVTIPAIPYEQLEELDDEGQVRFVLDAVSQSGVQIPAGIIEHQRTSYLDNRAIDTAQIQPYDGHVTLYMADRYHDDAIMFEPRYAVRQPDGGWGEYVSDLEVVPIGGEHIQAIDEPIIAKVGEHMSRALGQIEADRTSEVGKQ
UniProt Q8IDJ8, 1-583: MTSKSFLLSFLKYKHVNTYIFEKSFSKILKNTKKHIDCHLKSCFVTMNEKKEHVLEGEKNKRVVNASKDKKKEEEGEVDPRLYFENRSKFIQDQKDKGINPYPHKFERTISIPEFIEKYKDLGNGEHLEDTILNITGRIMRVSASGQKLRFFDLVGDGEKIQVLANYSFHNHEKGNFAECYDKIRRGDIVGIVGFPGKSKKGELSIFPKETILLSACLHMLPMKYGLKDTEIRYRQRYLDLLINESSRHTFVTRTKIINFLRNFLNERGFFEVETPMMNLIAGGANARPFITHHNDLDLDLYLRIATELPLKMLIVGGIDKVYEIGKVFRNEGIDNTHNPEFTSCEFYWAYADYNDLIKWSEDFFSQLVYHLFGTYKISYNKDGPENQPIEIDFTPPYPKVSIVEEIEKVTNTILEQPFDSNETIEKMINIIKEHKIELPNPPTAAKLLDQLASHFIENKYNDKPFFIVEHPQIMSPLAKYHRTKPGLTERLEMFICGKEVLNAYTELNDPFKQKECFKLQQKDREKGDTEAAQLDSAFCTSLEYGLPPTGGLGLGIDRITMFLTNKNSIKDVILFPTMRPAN

The values are deposited in ChEMBL (CHEMBL3988442, “University of Dundee, Small-Polar-MMV Screening Library” (2021)).

ClpP1P2: 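ClpP1P2, Mycobacterium tuberculosis (UniProt P9WPC5 and UniProt P9WPC3). Protease assay of ClpP1P2, read by the AMC dye that it sets free. Tested at 50 µM. Direction is inferred from only a few compounds that gave an IC50; most scored high, so higher reads as stronger inhibition. Most other retested compounds had strongly negative values. Of about 69,000 compounds tested this way, about 10 (0.015%) reached 50% or more in at least one test.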
Toxoplasma: 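Assay of Toxoplasma gondii numbers, read through their beta-galactosidase reporter with a colour substrate. Concentration: 10 µM. The record gives no direction; the compounds picked for IC50 retests had high values, so higher reads as fewer parasites. Size under these conditions: about 67,000 compounds, about 260 of them at 50% or above in at least one test.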
TcHisRS: 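Histidine-tRNA ligase, Trypanosoma cruzi CL Brener (UniProt Q4DA54). Enzyme assay of histidyl-tRNA synthetase; the read-out is not stated. Compounds at 30 µM. Higher reads as stronger inhibition (inferred: compounds with an IC50 in retests scored well above the rest). Of about 69,000 compounds tested this way, about 31 (0.045%) reached 50% or more in at least one test.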
Pks13 thioesterase: 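Polyketide synthase Pks13, Mycobacterium tuberculosis (UniProt I6X8D2). Enzyme assay of the thioesterase domain of polyketide synthase 13; the read-out is not stated. Tested at 30 µM. Higher reads as stronger inhibition (inferred from which compounds were picked for retests). About 67,000 compounds were tested under these conditions; 0.46% (about 300) showed 50% or more at least once.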
PfKRS1: 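Enzyme assay of the cytosolic lysyl-tRNA synthetase in 384-well plates, read by luminescence. Target: Lysine-tRNA ligase, Plasmodium falciparum 3D7 (UniProt Q8IDJ8). Compounds at 30 µM. Direction is inferred from only a few compounds that gave an IC50; most scored high, so higher reads as stronger inhibition. Of about 69,000 compounds tested this way, about 49 (0.071%) reached 50% or more in at least one test.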

Each number is a percent effect as filed. The controls that fix the scale are not given in the record; negative values are as filed. Compounds were drawn at random from those tested, without regard to their results.

SMILES: CN(C)CCOCC1CN(Cc2cccc(F)c2)Cc2nccn2C1 (stereo unspecified)
ClpP1P2: 3.227
TcHisRS: 2.01
Pks13 thioesterase: -12.28
PfKRS1: 3.568

SMILES: Cc1cc(C(=O)N2CCOC[C@H](Oc3cccnc3)C2)c(C(F)(F)F)o1
ClpP1P2: -3.982
Toxoplasma: -6.821
TcHisRS: 5.941
Pks13 thioesterase: -2.424
PfKRS1: 0.6238

SMILES: CC(C)[C@H](NC(=O)c1cccc(CCC(C)(C)O)c1)C(N)=O
ClpP1P2: -14.04
Toxoplasma: -62.29
TcHisRS: 6.763
Pks13 thioesterase: 5.119
PfKRS1: 6.917

SMILES: Cc1cccc(CN2CC[C@@H]3[C@@H]2CCN3C(=O)c2cnoc2C)n1
ClpP1P2: -0.7197
TcHisRS: -0.5348
Pks13 thioesterase: -0.9142
PfKRS1: 6.346

SMILES: COc1ccc(C(=O)Nc2ccc3ncn(C(C)C)c(=O)c3c2)cc1
ClpP1P2: -3.84
Toxoplasma: 15.37
TcHisRS: -12.95
Pks13 thioesterase: -3.379
PfKRS1: 11.88

SMILES: OC1CCCN(CCNc2ncc(Cl)cc2F)C1 (stereo unspecified)
ClpP1P2: 8.3
Toxoplasma: -5.833
TcHisRS: 0
Pks13 thioesterase: -13.41
PfKRS1: 2.429

SMILES: COCC(O)CN(C)c1ccnc2ccc(Cl)cc12 (stereo unspecified)
ClpP1P2: 29.04
Toxoplasma: 7.533
TcHisRS: 11.88
Pks13 thioesterase: 20.04
PfKRS1: 2.331

SMILES: Cc1nn(C)cc1-c1cc(C(=O)NCC(C)(C)c2ccccc2F)n[nH]1
ClpP1P2: 1.844
Toxoplasma: 38.78
TcHisRS: -4.215
Pks13 thioesterase: 0.631
PfKRS1: -1.338

SMILES: COCCn1cc2c(n1)C(CNCc1ccsc1)OCC2 (stereo unspecified)
ClpP1P2: -1.857
TcHisRS: 2.804
Pks13 thioesterase: -14.5
PfKRS1: 1.019

SMILES: CN(Cc1cc[nH]n1)C(=O)c1cccc(CCC(C)(C)O)c1
ClpP1P2: -11.74
Toxoplasma: 0.4405
TcHisRS: 2.905
Pks13 thioesterase: -20.19
PfKRS1: 0.4894

SMILES: COc1cc(C(=O)Nc2nc(C)no2)cc(Cl)c1OC
ClpP1P2: -30.87
Toxoplasma: -11.78
TcHisRS: 5.714
Pks13 thioesterase: -4.538
PfKRS1: 1.342

SMILES: O=S(=O)(Cc1ccccc1Cl)NC(CO)c1ccco1 (stereo unspecified)
ClpP1P2: 2.534
Toxoplasma: -5.294
TcHisRS: 0
Pks13 thioesterase: 5.315
PfKRS1: 7.337

SMILES: CC(C)CN1CC(C(=O)NCCc2c[nH]cn2)CC1=O (stereo unspecified)
ClpP1P2: 1.505
Toxoplasma: 13.67
TcHisRS: -5.641
Pks13 thioesterase: -20.16
PfKRS1: 1.823

SMILES: Cc1cnn(C2(C(=O)O)CCN(Cc3oc4ccccc4c3C)CC2)c1
ClpP1P2: -10.3
Toxoplasma: -1.34
TcHisRS: 3.867
Pks13 thioesterase: -22.6
PfKRS1: -2.278

SMILES: CSc1nc2ncc3c(=O)n(C)ccc3n2n1
ClpP1P2: -9.268
Toxoplasma: -7.761
TcHisRS: 11
Pks13 thioesterase: -1.096
PfKRS1: 2.021

SMILES: CN(C(=O)c1ccc(C#N)cc1)C1CCN(c2ccccn2)CC1
ClpP1P2: 5.542
Toxoplasma: -2.641
TcHisRS: -0.8403
Pks13 thioesterase: -0.4092
PfKRS1: 0.6987

SMILES: CCc1nc(CN(C)C2CCN(CC(F)(F)F)C2)no1 (stereo unspecified)
ClpP1P2: -23.07
Toxoplasma: -11.28
TcHisRS: 5.187
Pks13 thioesterase: -6.152
PfKRS1: -0.4921

SMILES: Cn1cc(NC(=O)c2cccc3cccnc23)ccc1=O
ClpP1P2: -3.53
Toxoplasma: -12.55
TcHisRS: 3.659
Pks13 thioesterase: -4.026
PfKRS1: 7.213

SMILES: COCC1CCCCN1C(=O)c1cc(-c2cccc(OC)c2)n[nH]1 (stereo unspecified)
ClpP1P2: -5.219
Toxoplasma: -4.224
TcHisRS: 3.947
Pks13 thioesterase: -23.75
PfKRS1: -0.9442

SMILES: CN(C)c1ncc(C2Nc3cc(Cl)ccc3C3=NCCCN32)cn1 (stereo unspecified)
ClpP1P2: -653.3
TcHisRS: 4.563
Pks13 thioesterase: 9.991
PfKRS1: 2.674

SMILES: O=C(O)C(F)(F)F.[H][C@@]12CCN(CCc3ccccc3)C[C@@]1([H])[C@H](C(=O)NC1CCC1)CCO2
Toxoplasma: -2.36

SMILES: CC1CN(C)CCN1CC(=O)NCCOc1ccc2c(c1)OCO2 (stereo unspecified)
ClpP1P2: -12.21
Toxoplasma: 33.79
TcHisRS: 3.79
Pks13 thioesterase: -21.58
PfKRS1: -0.5689

SMILES: CCS(=O)(=O)N1CCC(C(=O)NC(Cc2ccsc2)c2nccs2)CC1 (stereo unspecified)
ClpP1P2: 17.77
Toxoplasma: 3.799
TcHisRS: 8.889
Pks13 thioesterase: -2.138
PfKRS1: 3.036

SMILES: Cl.Cl.Cl.OC(CN1CCN(Cc2cccnc2)CC1)c1cccs1 (stereo unspecified)
Toxoplasma: 1.931

SMILES: Cc1cc(C2CCN(S(=O)(=O)c3cn(C)cn3)CC2)ccn1
ClpP1P2: 8.134
Toxoplasma: -11.65
TcHisRS: 4.478
Pks13 thioesterase: 3.439
PfKRS1: 0.2535

2 of the entries, repeated:

For Cl.Cl.Cl.OC(CN1CCN(Cc2cccnc2)CC1)c1cccs1 (stereo unspecified) the result was Toxoplasma: 1.931%.
For COCCn1cc2c(n1)C(CNCc1ccsc1)OCC2 (stereo unspecified) the result was ClpP1P2: -1.857%; TcHisRS: 2.804%; Pks13 thioesterase: -14.5%; PfKRS1: 1.019%.